# Assay results: PubChem BioAssay AID504467 (National Center for Advancing Translational Sciences (NCATS), 2011)
# In all, about 330,000 compounds went through this assay and about 7,700 (2.3%) were called active. The shares of active, inactive and inconclusive entries below differ from those in the screen. Calls come from the whole dose curve; as a rule, active = well fitted inhibition curve with a large enough effect; inconclusive = small, poorly fitted or top-dose-only effect, or effect the other way; inactive = flat fitted curve, though single readings scatter. Potencies of inconclusive entries are doubtful fits and often do not repeat.
# Experiment: qHTS screen for small molecules that inhibit ELG1-dependent DNA repair in human embryonic kidney (HEK293T) cells expressing luciferase-tagged ELG1; note: nearly all actives have a fitted effect of over 55% in size
# Settings: HEK293T ELG1-luciferase reporter, luminescence, 16 h, DNA damage induced by 5-fluorouridine; activity change, negative = inhibition: at 46.1 µM (top of the series)
# How it was run: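 Overnight (16 hr) co-exposure of 2,000 cells/well to 5-fluorouridine and compound at 37 °C preceded detection. Luciferase was quantified via ONE-Glo luminescence; loss of signal denotes inhibition.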
# % is set by controls: 0 for no effect and ±100 for the full control effect; potency is the fitted concentration of half-maximal effect.
SMILES,Potency,"activity change, negative = inhibition"
Cc1cc(C)cc(OCCNC(=O)c2cc(S(=O)(=O)N3CCOCC3)ccc2F)c1,"inconclusive: 18.3 µM [inhibitor, single point]",
Cc1c(C(=O)Nc2cccc(Cl)c2)oc2ccc(S(=O)(=O)N3CCC4(CC3)OCCO4)cc12,active: 9.2 µM,
CN1CCN(C(=O)/C(=C/c2ccccc2F)NC(=O)c2ccccc2)CC1,,inactive: 0.395%
O=C(CN1CCN(c2ccccn2)CC1)Nc1ccccc1,,inactive: 5.25%
CCC(Sc1nc2ccccc2c(=O)n1CCN1CCOCC1)C(=O)NCc1cccnc1 (centres undefined),"inconclusive: 29.1 µM [activator, single point]",
Cc1cccc2cc(/C=N/NC(=O)[C@H]3C[C@@H]3c3ccccc3)c(Cl)nc12,,inactive: 0.647%
COc1ccc(C2=NS(=O)(=O)N(C)C(C(=O)NCc3ccc4c(c3)OCO4)=C2)cc1OC,,inactive: -24.7%
O=C(NNC(=S)NCc1ccco1)c1ccc(Cl)s1,,inactive: -9.66%
CCOC(=O)CCc1c(C)nc(SCCCn2c(=O)[nH]c3ccccc32)c(C#N)c1C,"inconclusive: 29.1 µM [inhibitor, single point]",
CCCC12CN(C(=O)c3ccc(OC)cc3)CC(C)(CN(C(=O)c3ccc(OC)cc3)C1)C2=O,"inconclusive: 18.4 µM [inhibitor, partial curve, poor fit]",
CCOC(=O)c1c(C)oc2c1c(C(c1cccnc1)N1CCCCC1)c(O)c1ccccc12 (centres undefined),"inconclusive: 7.31 µM [activator, partial curve]",
Cc1cccc(NC(=O)CN2CCN(C(=O)c3ccc(-c4nc5ccccc5s4)o3)CC2)c1C,"inconclusive: 11.6 µM [inhibitor, partial curve, poor fit]",
Cc1cccnc1NC(=O)CNC(=O)C12CC3CC(CC(C3)C1)C2,,inactive: -8.29%
NCCCC(=O)N1c2ccccc2Sc2ccc(Cl)cc21,"inconclusive: 18.3 µM [inhibitor, single point]",
O=C(CSc1ccc(-c2ccco2)nn1)Nc1ccccc1F,"inconclusive: 9.2 µM [inhibitor, partial curve, poor fit]",
CCOC(=O)C1=CN(Cc2cccc(F)c2)S(=O)(=O)N(C)C1c1ccc(F)c(Cl)c1 (centres undefined),"inconclusive: 0.259 µM [inhibitor, single point]",
COC(=O)c1c(C(=O)OC)c(-c2ccc(Br)cc2)n2c1CS(=O)C2 (centres undefined),,inactive: -1.62%
O=C1C2C(C(=O)N1CCN1CCN(Cc3ccc([N+](=O)[O-])cc3)CC1)[C@H]1C=C[C@@H]2C1 (some centres undefined),active: 16.4 µM,
Cc1nc2cc(CO)ccc2s1,,inactive: 13.9%
CCN(CC)S(=O)(=O)c1cc(NC(=O)c2ccc(-n3cncn3)c([N+](=O)[O-])c2)ccc1C,"inconclusive: 16.4 µM [inhibitor, single point]",
CC1=C/C(=C/N(C)c2ccccc2)C(=O)S1,"inconclusive: 18.4 µM [activator, single point]",
COc1ccccc1CC(=O)Nc1ccc(F)cc1F,"inconclusive: 1.16 µM [activator, partial curve, poor fit]",

# Whole records from above:
# NCCCC(=O)N1c2ccccc2Sc2ccc(Cl)cc21 in the list: Potency: inconclusive: 18.3 µM [inhibitor, single point]
# Cc1nc2cc(CO)ccc2s1 in the list: activity change, negative = inhibition: inactive: 13.9%

# Following part:

SMILES,Potency,"activity change, negative = inhibition"
CCN(CC)S(=O)(=O)c1cc(NC(=O)C(C)N2CCc3ccccc32)ccc1C (centres undefined),"inconclusive: 23.1 µM [inhibitor, single point]",
O=C(N/N=C/c1cccs1)c1ccc2c(c1)OCO2,"inconclusive: 5.17 µM [activator, partial curve]",
Cc1ccc(C2C(C#N)=C(N)Oc3nc(-c4ccccc4)[nH]c32)o1 (centres undefined),"inconclusive: 29.1 µM [activator, single point]",
COc1ccc2[nH]c3c(N4CC(C)OC(C)C4)ncnc3c2c1 (centres undefined),"inconclusive: 29.1 µM [inhibitor, single point]",
CC1CCN(c2ccc3c(c2)S(=O)(=O)c2cccc(C(=O)NC4CC4)c2C3=O)CC1,"inconclusive: 11.6 µM [activator, partial curve, poor fit]",
Cc1c(OCC(=O)C(C)(C)C)ccc2c(-c3ccccc3)cc(=O)oc12,"inconclusive: 29.1 µM [inhibitor, partial curve, poor fit]",
CC(=O)c1sc(-c2ccccn2)nc1C,"inconclusive: 29.1 µM [activator, single point]",
C[C@@]12C(=O)Nc3ccccc3C(=O)N1[C@H]1c3cc(Cl)ccc3OC[C@@H]1[C@@H]2c1ccccc1,"inconclusive: 23.1 µM [inhibitor, partial curve]",
CCN(c1ccccc1)S(=O)(=O)c1ccc(N)c(OC)c1,"inconclusive: 6.51 µM [inhibitor, single point]",
COc1ccc(NS(=O)(=O)c2ccc3c(c2)NC(=O)CCS3)cc1Cl,,inactive: -9.15%
CCOc1c(Br)cc(CNC2CCCCCCC2)cc1OC,,inactive: -19.5%
c1ccc(N2CCN(c3ccccc3)C2c2cccs2)cc1,"inconclusive: 18.4 µM [activator, partial curve]",
CCOC(=O)c1cnc2ccc(OC)cc2c1Nc1ccc(N2CCN(C)CC2)cc1,"inconclusive: 0.184 µM [inhibitor, single point]",
COc1cc(OC)cc(-c2nc3cc(C)ccc3o2)c1,"inconclusive: 16.4 µM [activator, partial curve]",
COCCCNC(=S)NNC(=O)c1csc2ccccc12,,inactive: 8.88%
NC(=O)c1cc(S(=O)(=O)NCCCc2ccco2)cs1,,inactive: 0.127%
COc1ccc(Nc2nc(-c3ccc(OC)cc3)c(CCC(=O)O)s2)cc1,"inconclusive: 20.6 µM [activator, single point]",
CC(C)C1N=C(c2ccc3c(c2)OCO3)CC(c2ccccc2O)N1 (centres undefined),"inconclusive: 13 µM [activator, partial curve]",
CCOC(=O)C1=C(C)NC(C)=C(C(=O)OCC)C1/C=C/c1ccccc1,"inconclusive: 9.2 µM [inhibitor, partial curve]",
CC(C)CC(C(=O)Nc1oc(-c2ccco2)c(-c2ccco2)c1C#N)N1C(=O)c2ccccc2C1=O (centres undefined),,inactive: 9.79%
COc1ccc(C(=O)Nc2ccccc2)cc1NC(=O)c1cccs1,"inconclusive: 23.1 µM [inhibitor, single point]",
COc1ccc(C2(c3ccc(OC)cc3)NC(=O)N(CC(=O)Nc3ccc(N4CCOCC4)cc3)C2=O)cc1,"inconclusive: 29.1 µM [inhibitor, single point]",
